Results deposited as PubChem BioAssay AID1259254 (NCATS, 2017)
The whole screen tested about 59,000 reagents; shown is an unselected part. Of all reagents, about 1,550 (2.6%) were called active. 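G2 share is only a proxy for re-replication; each gene was hit by three separate siRNAs, and active genes were retested.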 Raw values are not corrected between plates. A number with no mark means an inactive call. The record does not give: the amount of reagent.

Purpose: 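Gene knock-downs that lead to re-replication, shown by excess G2 DNA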 (primary screen)
System: human HCT116 colorectal cancer cells
Reagent: single siRNA against human genes
Duration: 3 days
Measured: 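Imaged Hoechst DNA stain sorts each cell into a cycle phase by DNA amount; per plate, G2 fraction set to 0% for non-targeting and 100% for GMNN siRNA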
Direction: G2 robust z-score and G2 cells, % of GMNN control: higher = more G2 cells, more excess DNA replication; raw share of cells in G2: higher = larger share of cells with G2 DNA content
Rule for the call: 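Active siRNAs have a G2 robust z of 5 or more median absolute deviations over the median, which in these data means about 38% or higher of GMNN control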

| G2 robust z-score | G2 cells, % of GMNN control | raw share of cells in G2 (%) | Gene | PubChem SID |
| --- | --- | --- | --- | --- |
| 5.05 (active) | 38.5 | 23.4 | BARD1 (BRCA1 associated RING domain 1) | SID160723021 |
| 1.94 | 16.6 | 10.2 | BARD1 (BRCA1 associated RING domain 1) | SID160723032 |
| 2.37 | 19.7 | 11.2 | BARD1 (BRCA1 associated RING domain 1) | SID160723042 |
| -0.478 | -0.395 | 4.35 | NSD2 (nuclear receptor binding SET domain protein 2) | SID160727859 |
| -0.695 | -1.93 | 3.54 | NSD2 (nuclear receptor binding SET domain protein 2) | SID160727860 |
| 6.19 (active) | 46.5 | 25.3 | NSD2 (nuclear receptor binding SET domain protein 2) | SID160727861 |
| 0.722 | 8.04 | 9.6 | CRLS1 (cardiolipin synthase 1) | SID160742020 |
| -0.0377 | 2.7 | 5.24 | CRLS1 (cardiolipin synthase 1) | SID160742021 |
| 3.85 | 30 | 15.3 | CRLS1 (cardiolipin synthase 1) | SID160742022 |
| 0.695 | 7.86 | 8 | CUEDC2 (CUE domain containing 2) | SID160748461 |
| -0.645 | -1.57 | 3.91 | CUEDC2 (CUE domain containing 2) | SID160748462 |
| 0.598 | 7.17 | 4.59 | CUEDC2 (CUE domain containing 2) | SID160748463 |
| 4.99 | 38.1 | 17.2 | CHAT (choline O-acetyltransferase) | SID160742414 |
| 0.806 | 8.64 | 8.04 | CHAT (choline O-acetyltransferase) | SID160742425 |
| 4.47 | 34.4 | 17.6 | CHAT (choline O-acetyltransferase) | SID160742436 |
| -0.148 | 1.93 | 4.37 | LINC00205 (long independently transcribed non-coding RNA 205) | SID160725580 |
| 1.31 | 12.2 | 7.66 | LINC00205 (long independently transcribed non-coding RNA 205) | SID160725581 |
| 2.47 | 20.4 | 9.08 | LINC00205 (long independently transcribed non-coding RNA 205) | SID160733788 |
| -1.04 | -4.35 | 2.49 | POLR2MP1 (POLR2M pseudogene 1) | SID160764338 |
| 2.12 | 17.9 | 11.1 | POLR2MP1 (POLR2M pseudogene 1) | SID160764339 |
| 1.17 | 11.2 | 8.71 | POLR2MP1 (POLR2M pseudogene 1) | SID160764340 |
| -0.444 | -0.159 | 5.63 | CARM1 (coactivator associated arginine methyltransferase 1) | SID160728585 |
| -0.741 | -2.25 | 3.12 | CARM1 (coactivator associated arginine methyltransferase 1) | SID160728586 |
| 1.08 | 10.6 | 10.7 | CARM1 (coactivator associated arginine methyltransferase 1) | SID160728587 |
| -0.329 | 0.651 | 3.74 | CLOCK (clock circadian regulator) | SID160722534 |
| -0.681 | -1.83 | 5.17 | CLOCK (clock circadian regulator) | SID160722535 |
| 0.704 | 7.92 | 6.66 | CLOCK (clock circadian regulator) | SID160722536 |
| 0.272 | 4.88 | 4.79 | COMMD9 (COMM domain containing 9) | SID160733029 |
| -0.225 | 1.38 | 4.38 | COMMD9 (COMM domain containing 9) | SID160739061 |
| 1.75 | 15.3 | 10.3 | COMMD9 (COMM domain containing 9) | SID160739062 |
| 1.57 | 14 | 8.91 | COMMD9 (COMM domain containing 9) | SID160766874 |
| -0.805 | -2.7 | 2.45 | COMMD9 (COMM domain containing 9) | SID160766875 |
| 1.2 | 11.4 | 9.52 | COMMD9 (COMM domain containing 9) | SID160766876 |
| -1.14 | -5.05 | 1.97 | LINC02694 (long independently transcribed non-coding RNA 2694) | SID160766957 |
| 1.19 | 11.4 | 8.03 | LINC02694 (long independently transcribed non-coding RNA 2694) | SID160766958 |
| 0.294 | 5.03 | 6.88 | LINC02694 (long independently transcribed non-coding RNA 2694) | SID160766959 |
| -0.262 | 1.13 | 4.05 | SMIM24 (small integral membrane protein 24) | SID160763328 |
| 0.747 | 8.22 | 6.23 | SMIM24 (small integral membrane protein 24) | SID160763329 |
| -0.75 | -2.31 | 2.57 | SMIM24 (small integral membrane protein 24) | SID160763330 |
| -0.757 | -2.36 | 2.71 | LINC02912 (long independently transcribed non-coding RNA 2912) | SID160768412 |
| 1.49 | 13.4 | 8.51 | LINC02912 (long independently transcribed non-coding RNA 2912) | SID160768413 |
| 0.196 | 4.35 | 4.6 | LINC02912 (long independently transcribed non-coding RNA 2912) | SID160768414 |
| 2.43 | 20 | 12.2 | INSR (insulin receptor) | SID160775892 |
| -1.29 | -6.08 | 3.36 | INSR (insulin receptor) | SID160775893 |
| -0.00312 | 2.95 | 5.06 | INSR (insulin receptor) | SID160775894 |
| -0.893 | -3.32 | 2.42 | ZNF112 (zinc finger protein 112) | SID160719313 |
| -0.0457 | 2.65 | 7.17 | ZNF112 (zinc finger protein 112) | SID160719314 |
| -1.07 | -4.56 | 1.43 | ZNF112 (zinc finger protein 112) | SID160719315 |
| -0.472 | -0.35 | 5.45 | ZNF202 (zinc finger protein 202) | SID160719268 |
| 1.32 | 12.2 | 8.82 | ZNF202 (zinc finger protein 202) | SID160719269 |
| -1.09 | -4.72 | 2.92 | ZNF202 (zinc finger protein 202) | SID160719270 |
| 1.22 | 11.6 | 8.55 | PPP1CA (protein phosphatase 1 catalytic subunit alpha) | SID160714755 |
| 1.04 | 10.3 | 7.41 | PPP1CA (protein phosphatase 1 catalytic subunit alpha) | SID160714756 |
| 1.65 | 14.6 | 7.89 | PPP1CA (protein phosphatase 1 catalytic subunit alpha) | SID160714757 |
| -0.734 | -2.19 | 2.47 | LTC4S (leukotriene C4 synthase) | SID160723911 |
| -1.39 | -6.79 | 2.78 | LTC4S (leukotriene C4 synthase) | SID160776775 |
| 2.6 | 21.3 | 13.6 | LTC4S (leukotriene C4 synthase) | SID160776776 |
| -0.107 | 2.21 | 4.53 | TMEM220 (transmembrane protein 220) | SID160765825 |
| -0.197 | 1.58 | 4.09 | TMEM220 (transmembrane protein 220) | SID160765826 |
| -0.91 | -3.43 | 3.16 | TMEM220 (transmembrane protein 220) | SID160765827 |
| -1.28 | -6.03 | 2.08 | TBX10 (T-box transcription factor 10) | SID160765031 |
| 0.246 | 4.7 | 6.79 | TBX10 (T-box transcription factor 10) | SID160765032 |
| -0.434 | -0.0854 | 5.87 | TBX10 (T-box transcription factor 10) | SID160765033 |
| 0.452 | 6.15 | 5.81 | RNF182 (ring finger protein 182) | SID160761738 |
| -0.546 | -0.874 | 2.83 | RNF182 (ring finger protein 182) | SID160761739 |
| -0.0351 | 2.72 | 4.06 | RNF182 (ring finger protein 182) | SID160761740 |
| -0.685 | -1.85 | 2.91 | CIRSR (corepressor of RBPJ and splicing regulator) | SID160722460 |
| -0.883 | -3.24 | 4.54 | CIRSR (corepressor of RBPJ and splicing regulator) | SID160722461 |
| 0.753 | 8.27 | 6.8 | CIRSR (corepressor of RBPJ and splicing regulator) | SID160722462 |

Laid out differently: 3 of the entries above
G2 robust z-score	G2 cells, % of GMNN control	raw share of cells in G2 (%)	Gene	PubChem SID
0.806	8.64	8.04	CHAT (choline O-acetyltransferase)	SID160742425
4.47	34.4	17.6	CHAT (choline O-acetyltransferase)	SID160742436
-0.148	1.93	4.37	LINC00205 (long independently transcribed non-coding RNA 205)	SID160725580
